This is one part of the list. The main result of the screen is listed elsewhere. These columns were measured beside it and carry no call. The list favours compounds with an active or inconclusive main result. Potencies come from curve fits of mixed quality, noted in brackets.
Assay: IkB Signaling
Conditions: ABC-DLBCL IkBa-CBG/CBR dual luciferase ratio (green luciferase fused to IkBa over red control in OCI-Ly3 lymphoma cells), 4 h
In short: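 Luminescence ratio of IκBα-fused green versus native red beetle luciferase in OCI-Ly3 cells, 4 h post-doxycycline with compound; red signal alone, scaled from basal (0%) to zero light (-100%), flagged nonspecific or cytotoxic effects.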

[1] = measured here: control luc red channel unless noted

Which AC50 [1] does the source give for `O=C(NC1CCCCCC1)C1CCN(C(=O)N2CCOc3ccccc32)CC1` here?
The AC50 was 15.8 µM [falling, partial curve].

With `COCCNC(=O)c1c(C)oc2nc(C)nc(N3CCOCC3)c12` as the compound, how does the AC50 [1] read?
The AC50 was 3.16 µM [rising, single point].

For `O=C(O)C1CCCCC1C(=O)Nc1ccccc1Nc1ccccc1` (centres undefined), which AC50 [1] is on record?
The AC50 was 12.6 µM [falling, partial curve].

With `COc1ccc(C2c3c(-c4c(C)cc(C)cc4O)n[nH]c3C(=O)N2Cc2ccco2)cc1` (centres undefined) as the compound, how does the AC50 [1] read?
The AC50 was 31.6 µM [falling, single point].

With `CCOC(=O)c1c(NC(=O)c2ccccc2Cl)sc2c1CCCC2` as the compound, how does the AC50 [1] read?
Its AC50 is 12.6 µM [falling, single point].

For `CCOCCOC(=O)C1=C(C)Nc2ccc(C)cc2S1`, which AC50 [1] is on record?
Its AC50 is 25.1 µM [falling, partial curve].

With `CCn1c(SCC(=O)Nc2nc3ccc(C)cc3s2)nc2c(c1=O)SC(C)C2` (centres undefined) as the compound, how does the AC50 [1] read?
Its AC50 is 3.16 µM [falling, full curve, poor fit].

For `Cc1ccc(-c2nnc(SCc3ccccc3C#N)o2)cc1`, which AC50 [1] is on record?
Its AC50 is 0.501 µM [rising, partial curve].

With `COc1cccc(-c2nc(CS(=O)(=O)CC(=O)NCc3ccc(C)cc3)c(C)o2)c1` as the compound, how does the AC50 [1] read?
Its AC50 is 39.8 µM [falling, partial curve].

With `Cc1ccc(CN2C(=O)C(O)(c3c[nH]c4ccccc34)c3cc(Cl)ccc32)cc1` (centres undefined) as the compound, how does the AC50 [1] read?
Its AC50 is 25.1 µM [falling, partial curve].

Which AC50 [1] does the source give for `Cc1ccc2c(c1)NC(c1cccnc1)=NC(c1ccc(F)cc1)=N2` here?
The AC50 was 39.8 µM [falling, single point].

With `O=C(CSc1nc2cc(Cl)ccc2s1)NC(=O)NCc1ccco1` as the compound, how does the AC50 [1] read?
Its AC50 is 10 µM [falling, partial curve].

Which AC50 [1] does the source give for `N=c1c(S(=O)(=O)c2ccccc2)cc2c(=O)n3ccccc3nc2n1Cc1ccco1` here?
Its AC50 is 25.1 µM [rising, partial curve] [measured here: IkB-luc green channel].

Which AC50 [1] does the source give for `CCc1ccc(CN(Cc2cn[nH]c2-c2ccc(OC)cc2)C(=O)Nc2ccc(C)c(F)c2)cc1` here?
Its AC50 is 3.16 µM [falling, single point].

Which AC50 [1] does the source give for `N#Cc1cn(CC(=O)NCCc2c[nH]c3ccccc23)c2ccccc12` here?
Its AC50 is 31.6 µM [falling, partial curve].

For `Cc1ccc(NC(=O)c2oc3ccccc3c2NC(=O)c2ccccc2C)cc1`, which AC50 [1] is on record?
The AC50 was 10 µM [falling, partial curve].

With `O=C(NC1CC(=O)N(c2cccc(F)c2)C1)C1CC1` (centres undefined) as the compound, how does the AC50 [1] read?
The AC50 was 3.98 µM [falling, partial curve].

Which AC50 [1] does the source give for `CCOC(=O)c1c(-c2ccccc2)oc2ccc(NS(=O)(=O)c3ccc(C)cc3C)cc12` here?
Its AC50 is 20 µM [falling, partial curve].

For `CSc1nnc(NC(=O)Cc2coc3cc(C)ccc23)s1`, which AC50 [1] is on record?
Its AC50 is 3.16 µM [rising, partial curve].

Which AC50 [1] does the source give for `Cc1nc(C)c(-c2ccc(SCC(=O)Nc3ccc(F)c(F)c3)nn2)s1` here?
The AC50 was 25.1 µM [falling, partial curve].

With `COc1cc(/C=C(\C#N)c2nc3ccccc3n2C)cc(OC)c1OC` as the compound, how does the AC50 [1] read?
The AC50 was 15.8 µM [falling, partial curve].

Which AC50 [1] does the source give for `Cc1ccc(NC(=O)c2cc(S(=O)(=O)N3CCCC(C)C3)cn2C)c(Br)c1` (centres undefined) here?
Its AC50 is 1.58 µM [falling, partial curve].

Which AC50 [1] does the source give for `CCN1CCN(c2oc(/C=C/c3ccccc3OC)nc2C#N)CC1` here?
The AC50 was 20 µM [falling, partial curve].

For `O=C(CSc1nc2c(oc3ccccc32)c(=O)n1-c1ccccc1F)Nc1ccccc1`, which AC50 [1] is on record?
The AC50 was 12.6 µM [falling, partial curve].

Which AC50 (measured here: IkB-luc green channel) does the source give for `O=c1c2ccccc2nc2ccc(NCc3ccco3)nn12` here?
The AC50 was 6.31 µM [rising, single point].

And the AC50 (measured here: control luc red channel)?
The AC50 was 10 µM [falling, partial curve].

Which AC50 [1] does the source give for `Cc1ccc(CN2CCSc3ccc(C(=O)N4CCN(c5cc(C)ccc5C)CC4)cc32)cc1` here?
The AC50 was 15.8 µM [falling, partial curve].

For `CCOC(=O)c1c(S(=O)(=O)N2CCCC(C(=O)N3CCN(c4cccc(C)c4C)CC3)C2)c(C)n(C)c1C` (centres undefined), which AC50 [1] is on record?
Its AC50 is 12.6 µM [falling, partial curve].

Which AC50 [1] does the source give for `COc1cc(C2CC(=O)c3c([nH]c(C(=O)OCCOC(C)C)c3C)C2)cc(OC)c1OC` (centres undefined) here?
The AC50 was 7.94 µM [falling, partial curve].

For `CCOc1cc(S(=O)(=O)n2ccnc2C(C)C)ccc1Cl`, which AC50 [1] is on record?
The AC50 was 15.8 µM [falling, partial curve].

With `Cc1ccccc1NC(=O)CCn1cnc2onc(-c3ccc(F)cc3)c2c1=O` as the compound, how does the AC50 [1] read?
Its AC50 is 31.6 µM [falling, single point].

With `Cc1ccc(N2C(=O)[C@@H]3[C@H](C2=O)C2c4ccccc4C=CN2[C@@H]3C(=O)c2ccco2)cc1` (some centres undefined) as the compound, how does the AC50 [1] read?
Its AC50 is 7.94 µM [falling, partial curve].

Which AC50 [1] does the source give for `Cc1ccc(NS(=O)(=O)c2c(C(=O)N3CCC(C)CC3)c(C)n(C)c2C)cc1Cl` here?
The AC50 was 6.31 µM [rising, single point].

Which AC50 [1] does the source give for `CCOc1ccc(NC(=O)CCn2cnc3onc(-c4ccc(F)cc4)c3c2=O)cc1` here?
The AC50 was 0.158 µM [falling, partial curve].

With `Cc1cccc(C)c1NC(=O)Cn1c(=O)n(CC2CCC(C(=O)NCCc3ccccc3)CC2)c(=O)c2ccccc21` (centres undefined) as the compound, how does the AC50 [1] read?
The AC50 was 20 µM [falling, single point].

With `CCOC(=O)CSc1nc2c(sc3ccccc32)c(=O)n1CCc1ccccc1` as the compound, how does the AC50 [1] read?
Its AC50 is 0.316 µM [falling, partial curve, poor fit].

For `O=[N+]([O-])c1cc(-c2nc(-c3ccccc3)no2)ccc1N1CCN(c2ccccc2)CC1`, which AC50 [1] is on record?
The AC50 was 6.31 µM [falling, partial curve].

With `CSc1ccc(S(=O)(=O)Nc2c(C)cccc2C)cc1` as the compound, how does the AC50 [1] read?
The AC50 was 10 µM [falling, partial curve].

With `CC(=O)c1ccc(S(=O)(=O)Nc2cccc(-c3ccc(N4CCCCC4)nn3)c2)cc1` as the compound, how does the AC50 [1] read?
Its AC50 is 20 µM [falling, partial curve].

Which AC50 [1] does the source give for `Cc1ccc(OS(=O)Nc2cccc3nccnc23)cc1` (centres undefined) here?
Its AC50 is 20 µM [rising, partial curve] [measured here: IkB-luc green channel].

Which AC50 [1] does the source give for `Cc1ccc(C(=O)O)cc1Nc1nc2ccccc2n2nnnc12` here?
The AC50 was 0.794 µM [falling, full curve].

With `COc1ccc(C(=O)n2nc(-c3ccccc3)nc2N)cc1OC` as the compound, how does the AC50 [1] read?
The AC50 was 15.8 µM [falling, partial curve].

With `Oc1ccccc1-c1cc(-c2cccc(F)c2)n[nH]1` as the compound, how does the AC50 [1] read?
The AC50 was 20 µM [falling, partial curve, poor fit].

With `COc1ccc(-c2cc3ccc(O)c(CN4CCOCC4)c3oc2=O)cc1` as the compound, how does the AC50 [1] read?
The AC50 was 1 µM [rising, full curve, poor fit].

For `Cc1cccc(NC(=O)c2nc(S(C)(=O)=O)ncc2Cl)c1`, which AC50 [1] is on record?
The AC50 was 3.16 µM [falling, full curve].

For `Cc1cccc(NC(=O)CSc2nc(-c3ccco3)nc3cc(=O)[nH]n23)c1`, which AC50 [1] is on record?
The AC50 was 20 µM [falling, partial curve, poor fit].

Which AC50 [1] does the source give for `Cc1cc(=O)oc2c1ccc1oc(/C(=N/O)c3ccccc3)c(C)c12` here?
Its AC50 is 10 µM [falling, partial curve].

For `COC(=O)c1c(SC)nc2ccccc2c1OCc1ccccc1C`, which AC50 [1] is on record?
Its AC50 is 10 µM [falling, full curve, poor fit].

Which AC50 [1] does the source give for `CC(C)(C)C(=O)c1sc(Nc2ccccc2)nc1N` here?
The AC50 was 20 µM [falling, partial curve].

For `O=C(CN1CCCCC1)Nc1nnc(-c2ccccc2)s1`, which AC50 [1] is on record?
Its AC50 is 15.8 µM [falling, partial curve].

For `NC(=O)c1cc2ccc(O)cc2oc1=NCc1ccccc1`, which AC50 [1] is on record?
The AC50 was 10 µM [falling, partial curve].

Which AC50 [1] does the source give for `CCOc1ccccc1NC(=O)c1c(NC(=O)c2ccccc2)sc2c1CCCC2` here?
Its AC50 is 12.6 µM [falling, partial curve].

With `CCOc1ccccc1CNC(=O)c1cnc2sc(N3CCCCCC3)nn2c1=O` as the compound, how does the AC50 [1] read?
The AC50 was 25.1 µM [falling, single point].

For `CCc1ccc(Oc2c(C(F)(F)F)oc3c(CN4CCN(C)CC4)c(O)ccc3c2=O)cc1`, which AC50 [1] is on record?
The AC50 was 15.8 µM [falling, single point].

Which AC50 [1] does the source give for `O=C(Cn1cc(SCc2cccc(Cl)c2)c2ccccc21)N1CCCCCC1` here?
Its AC50 is 12.6 µM [falling, partial curve].

For `CCc1ccc(S(=O)(=O)NCCc2csc3nc(-c4ccccc4)nn23)s1`, which AC50 [1] is on record?
The AC50 was 39.8 µM [falling, single point].

Which AC50 [1] does the source give for `COc1ccccc1CN(Cc1ccco1)c1cnc(S(C)(=O)=O)nc1C(=O)Nc1cc(C)ccc1C` here?
The AC50 was 10 µM [falling, partial curve].

For `O=C(NCCc1csc2nc(-c3ccc(F)cc3)nn12)c1cccc(C(F)(F)F)c1`, which AC50 [1] is on record?
Its AC50 is 39.8 µM [falling, single point].

Which AC50 [1] does the source give for `COc1cccc(C(=O)NCc2nc(-c3ccccc3)no2)c1OC` here?
The AC50 was 20 µM [falling, single point].

For `Cc1ccc(-c2noc(CCC(=O)N3CCN(c4cccc(C(F)(F)F)c4)CC3)n2)cc1`, which AC50 [1] is on record?
The AC50 was 15.8 µM [falling, partial curve].

For `Cc1ccc(C)c(NC(=O)c2ccc3nc(CCc4ccccc4)oc3c2)c1`, which AC50 [1] is on record?
Its AC50 is 0.1 µM [rising, full curve, poor fit].

With `CCOC(=O)CNS(=O)(=O)c1cc(-c2nnc(Nc3cccc(O)c3)c3ccccc23)ccc1C` as the compound, how does the AC50 [1] read?
Its AC50 is 25.1 µM [falling, partial curve].

Which AC50 [1] does the source give for `CCCc1ccc(C2Sc3ccccc3NC3=C2C(=O)c2ccccc23)cc1` (centres undefined) here?
Its AC50 is 10 µM [falling, partial curve].

With `COc1ccc(N2CCN(Cc3nc4c(c(=O)n(C)c(=O)n4C)n3CCc3ccccc3)CC2)cc1` as the compound, how does the AC50 [1] read?
Its AC50 is 39.8 µM [falling, single point].

Source: PubChem BioAssay AID445 (National Center for Advancing Translational Sciences (NCATS), 2006)
